Laboratory results taken from PubChem BioAssay AID2685 (National Center for Advancing Translational Sciences (NCATS), 2010).
This is one part of the list. The main result of the screen is listed elsewhere. These columns were measured beside it and carry no call. Compounds called inactive in the main read-out are mostly missing here. The note in brackets gives the kind of curve behind each potency; many fits are weak.

Test: qHTS Assay for Lipid Storage Modulators in Drosophila S3 Cells;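 as to cell number change: cells counted by Cell Tracker Red CMTPX staining in the red channel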
Settings: BODIPY lipid droplet fluorescence, 18-24 h; for cell number change: measured here: cell count max response, cells fed with added oleic acid
In short: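 Drosophila S3 cells got compounds at several concentrations plus oleic acid (400 uM solution). Laser-scanning cytometry with 488 nm excitation read lipid droplets at 500-530 nm and cells at 575-640 nm. Percent activity was relative to 20 uM Triacsin C.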

[1] = measured here: cell number channel AC50, cells fed with added oleic acid
[2] = measured here: lipid fluorescence (Fed channel) AC50, cells fed with added oleic acid

Row | SMILES | cell number change [%] | AC50 [1] | AC50 [2]
1 | CC(=O)c1cccc(NS(=O)(=O)N(C)C)c1 | -151 | 29.1 µM [falling, single point] | 29.1 µM [falling, single point]
2 | FC(F)(F)c1nnc2ccc(NCn3nnc4ccccc43)nn12 | 73.1 | 3.66 µM [rising, partial curve, poor fit] | 0.13 µM [rising, full curve, poor fit]
3 | O=C1c2ccccc2C(=O)N1CCc1c[nH]c2ccccc12 | 24.8 |  | 0.13 µM [falling, full curve, poor fit]
4 | CC(=O)c1sc(NC(=O)c2cccc3ccccc23)nc1C | 34.7 | 25.9 µM [rising, single point] | 
5 | O=C(CC1SC(=Nc2ccc(OC(F)F)cc2)N(CCN2CCOCC2)C1=O)Nc1ccccc1 (centres undefined) | -8.37 |  | 0.82 µM [falling, single point]
6 | CC(Sc1nnc2c(n1)C1CCC2(C)C1(C)C)C(=O)Nc1ccccc1 (centres undefined) | -84 | 16.4 µM [falling, partial curve, poor fit] | 2.59 µM [falling, full curve]
7 | COc1ccc(C)cc1NC(=O)c1[nH]c(C)c(C(C)=O)c1C | -12.6 |  | 
8 | CCOc1ccc(N=Cc2ccc3ccccc3c2)cc1 | 19.7 |  | 
9 | CC1CN(C(=S)SCCN2C(=O)CCC2=O)CC(C)O1 (centres undefined) | 19.7 |  | 
10 | COCc1cc(C)nc2sc(C(=O)Nc3ccc(C(=O)OC)cc3)c(N)c12 | -27 |  | 29.1 µM [falling, single point]
11 | O=C(NC(=S)NNC(=O)c1ccco1)c1ccccc1 | 0.0203 | 6.51 µM [rising, single point] | 3.26 µM [rising, partial curve, poor fit]
12 | COC(=O)c1cn(CCOc2ccc(C)cc2)c2ccccc12 | 7.33 |  | 
13 | COc1ccc(/C=C(/C#N)C(=O)Nc2ccc(O)cc2)cc1C(=O)O | -15.6 |  | 2.59 µM [falling, full curve]
14 | Nc1ncnc2c1C1(CCCCC1)Cc1ccccc1-2 | -10 | 3.66 µM [rising, single point] | 
15 | CCOC(=O)N1CCN(C(=O)c2ccc(CN(c3ccc(C)c(C)c3)S(C)(=O)=O)cc2)CC1 | 9.02 |  | 11.6 µM [falling, partial curve]
16 | CC(C)NC(=O)C1(S(=O)(=O)c2ccccc2)CC=CC1 | 2.99 |  | 3.66 µM [rising, full curve]
17 | COc1ccc(/C=C/C(=O)NCCN=C2NS(=O)(=O)c3ccccc32)cc1 | -44.7 | 6.51 µM [falling, single point] | 6.51 µM [falling, single point]
18 | O=C(COC(=O)CCc1nc2ccccc2s1)NCc1ccco1 | 39.5 | 0.00461 µM [falling, full curve, poor fit] | 
19 | Cc1ccc(NC(=O)COC(=O)[C@H](C)NC(=O)c2ccccc2)cc1S(=O)(=O)N1CCOCC1 | -16.8 |  | 18.4 µM [falling, single point]
20 | O=C(C1CCCN(S(=O)(=O)c2cccc3cccnc23)C1)N1CCN(c2ccc(F)cc2)CC1 (centres undefined) |  |  | 0.116 µM [rising, full curve, poor fit]
21 | CCOCCn1c(C(C)O)nc2ccccc21 (centres undefined) | -19.5 |  | 29.1 µM [falling, partial curve, poor fit]

Row | SMILES | cell number change [%] | AC50 [1] | AC50 [2]
22 | Cc1ccc(/C=N/NC(=O)c2ccc(NC(=O)c3ccccc3Cl)cc2)o1 | 8.75 |  | 
23 | O=C1NC(=S)CN1c1ccccc1 | -59.2 | 7.31 µM [falling, partial curve] | 3.66 µM [falling, full curve]
24 | O=C(NC1CCNCC1)C1CCCCC1 | 31.4 |  | 
25 | Cc1cc(C)nc(NC(=NCc2ccc3c(c2)OCO3)NC(=O)Nc2ccccc2)n1 | -5.58 |  | 1.64 µM [falling, full curve]
26 | Cc1c(C(=O)O)c(=O)n(-c2ccccc2)n1-c1ccccc1 | 76.1 | 2.91 µM [falling, partial curve] | 
27 | CC(Sc1nc(N2CCCCC2)c2c(c1C#N)CCCC2)C(=O)O (centres undefined) | -18 |  | 0.146 µM [falling, full curve, poor fit]
28 | C=CCOCCN1C(=O)C2C(c3ccccc3)C=CC(c3ccccc3)C2C1=O (centres undefined) | 45 | 29.1 µM [rising, single point] | 
29 | C=CCSC1=C(C#N)C(c2ccccc2Cl)C(C(=O)c2cccs2)C(O)(C(F)(F)F)N1 (centres undefined) | 8.73 |  | 0.146 µM [rising, full curve]
30 | Cc1ccc(-n2cnnn2)c2cccnc12 | 16 |  | 2.31 µM [rising, single point]
31 | CCOc1ccc(CCNC(=O)C2CC(=O)N(Cc3ccc(OC)cc3)C2)cc1OCC (centres undefined) | 9.23 | 0.291 µM [rising, partial curve] | 
32 | CC1(C)CC(=O)C(C(=O)c2ccccc2)C(=O)C1 | -28.7 |  | 29.1 µM [falling, single point]
33 | O=C(NC1CCN(Cc2ccccc2)CC1)c1cccc(S(=O)(=O)Nc2ccc(F)cc2)c1 | -21.6 |  | 16.4 µM [falling, partial curve]
34 | O=C(Nc1cccc(Cl)c1)Nc1ccc(Br)cc1F | -66.3 | 16.4 µM [falling, partial curve] | 9.2 µM [falling, partial curve]
35 | CCc1cccc(Oc2nn[nH]n2)c1 | -6.32 |  | 
36 | Cc1nc(C)c(C(=O)N2CCCC(CCC(=O)NCc3ccc(F)c(F)c3)C2)s1 (centres undefined) | -26.6 |  | 20.6 µM [falling, partial curve, poor fit]
37 | O=C(Nc1cccc2ccccc12)c1nn(C23CC4CC(CC(C4)C2)C3)cc1[N+](=O)[O-] | -19.3 |  | 29.1 µM [rising, single point]
38 | CCn1c(SCC(=O)Nc2ccc(N(C)C)cc2)nnc1-c1ccco1 | 25.4 |  | 25.9 µM [rising, single point]
39 | O=S(=O)(C/C(=C/CO)S(=O)(=O)c1ccccc1)c1ccccc1 | -71.1 | 5.8 µM [falling, full curve] | 5.17 µM [falling, full curve]
40 | O=C(Nc1cccc(Cl)c1Cl)C1CCN(C(=O)c2cccs2)CC1 | 3.36 |  | 
41 | CC(=O)Nc1ccc(NC(=O)C(C)OC(=O)CCc2c[nH]c3ccccc23)cc1 (centres undefined) | 34.7 | 7.31 µM [rising, partial curve, poor fit] | 6.51 µM [rising, single point]
42 | COC(=O)C1CCN(C(=O)COC(=O)CC(NC(C)=O)c2ccccc2)CC1 (centres undefined) | -18.4 | 0.00184 µM [falling, full curve, poor fit] | 25.9 µM [falling, partial curve]

Some values from the results shown:
cell number change [%], O=C(Nc1cccc(Cl)c1)Nc1ccc(Br)cc1F is entered as -66.3
AC50 [2], O=C(NC1CCN(Cc2ccccc2)CC1)c1cccc(S(=O)(=O)Nc2ccc(F)cc2)c1 is entered as 16.4 µM [falling, partial curve]
AC50 [2], CCn1c(SCC(=O)Nc2ccc(N(C)C)cc2)nnc1-c1ccco1 is entered as 25.9 µM [rising, single point]

Continuation.

Row | SMILES | cell number change [%] | AC50 [1] | AC50 [2]
43 | Cc1ccccc1Nc1nc(N)nc(COc2ccc(C#N)cc2)n1 | 51.7 | 18.4 µM [rising, single point] | 
44 | COc1cc2c(cc1OC)C(c1ccccc1)=NCC2 | 71.7 | 4.11 µM [rising, partial curve, poor fit] | 
45 | Cc1ccc(SCC(=O)OCC(=O)N(C)CC(=O)Nc2ccc(F)cc2)cc1 | -12 |  | 0.00461 µM [falling, full curve, poor fit]
46 | COc1cccc(NC(=O)Nc2nnc(-c3ccccc3SCc3ccccc3)s2)c1 | -20.2 |  | 6.51 µM [rising, partial curve]
47 | c1cc2[nH]snc2c2nc(C3CC3)nc12 | 60.7 | 5.17 µM [rising, full curve] | 5.17 µM [rising, single point]
48 | Cc1cc(C)n(CCCN2CCC(C(=O)Nc3cccc(-c4cccc(F)c4)c3)CC2)n1 | -8.22 |  | 
49 | C=CCC1(N(C(C)=O)c2ccccc2)CCCCC1 | -15 |  | 0.092 µM [falling, full curve, poor fit]
50 | CC(NS(=O)(=O)c1ccc(Br)cc1)C(N)=O (centres undefined) | -226 | 25.9 µM [falling, partial curve] | 20.6 µM [falling, partial curve]
51 | CSc1nnc2c(n1)OC1(Nc3ccccc3-2)C(=O)Nc2ccccc21 (centres undefined) | 23 |  | 
52 | CCCCC[n+]1ccn(-c2nc3ccccc3nc2[N-]S(=O)(=O)c2ccc(C)cc2)c1 | -12.3 |  | 6.51 µM [falling, single point]
53 | COC(CNC(=O)c1cn(C)c2ccc(S(=O)(=O)N(C)C3CCCCC3)cc2c1=O)OC | -4.03 |  | 0.326 µM [rising, single point]
54 | CC(=O)Nc1ccc(CN2CCCC(CO)(Cc3cccc(Cl)c3)C2)cc1 (centres undefined) | 39.8 | 0.00517 µM [rising, full curve, poor fit] | 
55 | COc1ccc(C[C@H]2CN3C(=NC[C@@H]3C(C)C)N2C[C@H](C)NC(=O)c2ccc(C)c(Br)c2)cc1 | -20.9 |  | 4.11 µM [falling, full curve]
56 | O=C(O)c1ccccc1S(=O)CCO (centres undefined) | 11.8 |  | 
57 | CN1CCN(c2ccccc2NC(=O)c2ccc(-c3ccccc3)cc2)CC1 |  | 2.59 µM [rising, single point] | 2.91 µM [rising, partial curve]
58 | N#CC(C(N)=O)=C1CCCCC1 | 19.8 |  | 6.51 µM [rising, full curve]
59 | COc1cccc(N2C(=O)C3ON(c4ccccc4)C(c4cccs4)C3C2=O)c1 (centres undefined) |  |  | 0.231 µM [falling, partial curve]
60 | Cc1onc(-c2ccccc2Cl)c1C(=O)NC(=S)Nc1ccc(C(C)C)cc1 | 11.1 |  | 
61 | O=C(Nc1cc(Br)ccc1O)c1cc(-c2ccccc2)on1 | 8.77 |  | 
